# Measurements: publication doi:10.1101/2021.09.30.462231
# These are yes or no findings as the source states them, for the method shown. For some assays here: In cells and extracts the contact can be indirect. Some binding calls cover weakened binding; strength is not graded here. For some assays here: Sequences can lack the tags named with a protein.
# T1: GST-Sec23 (S. cerevisiae) (UniProt P15303)
# T1 sequence: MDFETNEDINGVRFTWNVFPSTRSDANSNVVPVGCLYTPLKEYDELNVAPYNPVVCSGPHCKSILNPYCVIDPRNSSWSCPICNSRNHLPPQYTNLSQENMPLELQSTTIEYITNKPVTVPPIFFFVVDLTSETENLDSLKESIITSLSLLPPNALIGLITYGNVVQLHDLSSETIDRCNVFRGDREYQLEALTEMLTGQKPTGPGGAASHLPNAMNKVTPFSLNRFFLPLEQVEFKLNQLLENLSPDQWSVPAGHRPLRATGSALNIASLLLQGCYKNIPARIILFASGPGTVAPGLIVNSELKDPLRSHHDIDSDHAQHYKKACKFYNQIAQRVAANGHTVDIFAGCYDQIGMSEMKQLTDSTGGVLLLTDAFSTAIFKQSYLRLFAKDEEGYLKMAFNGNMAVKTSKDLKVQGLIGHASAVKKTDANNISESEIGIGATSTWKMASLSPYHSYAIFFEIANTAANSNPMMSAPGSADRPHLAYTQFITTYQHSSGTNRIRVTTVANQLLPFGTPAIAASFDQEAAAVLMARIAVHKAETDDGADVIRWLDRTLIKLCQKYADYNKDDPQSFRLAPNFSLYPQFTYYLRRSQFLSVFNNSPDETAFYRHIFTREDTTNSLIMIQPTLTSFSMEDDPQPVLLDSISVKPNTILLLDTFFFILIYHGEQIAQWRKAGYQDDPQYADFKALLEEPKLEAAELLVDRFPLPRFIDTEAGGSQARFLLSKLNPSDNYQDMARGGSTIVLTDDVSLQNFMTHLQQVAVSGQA
# T2: Trs130 (S. cerevisiae) (UniProt Q03660)
# T2 sequence: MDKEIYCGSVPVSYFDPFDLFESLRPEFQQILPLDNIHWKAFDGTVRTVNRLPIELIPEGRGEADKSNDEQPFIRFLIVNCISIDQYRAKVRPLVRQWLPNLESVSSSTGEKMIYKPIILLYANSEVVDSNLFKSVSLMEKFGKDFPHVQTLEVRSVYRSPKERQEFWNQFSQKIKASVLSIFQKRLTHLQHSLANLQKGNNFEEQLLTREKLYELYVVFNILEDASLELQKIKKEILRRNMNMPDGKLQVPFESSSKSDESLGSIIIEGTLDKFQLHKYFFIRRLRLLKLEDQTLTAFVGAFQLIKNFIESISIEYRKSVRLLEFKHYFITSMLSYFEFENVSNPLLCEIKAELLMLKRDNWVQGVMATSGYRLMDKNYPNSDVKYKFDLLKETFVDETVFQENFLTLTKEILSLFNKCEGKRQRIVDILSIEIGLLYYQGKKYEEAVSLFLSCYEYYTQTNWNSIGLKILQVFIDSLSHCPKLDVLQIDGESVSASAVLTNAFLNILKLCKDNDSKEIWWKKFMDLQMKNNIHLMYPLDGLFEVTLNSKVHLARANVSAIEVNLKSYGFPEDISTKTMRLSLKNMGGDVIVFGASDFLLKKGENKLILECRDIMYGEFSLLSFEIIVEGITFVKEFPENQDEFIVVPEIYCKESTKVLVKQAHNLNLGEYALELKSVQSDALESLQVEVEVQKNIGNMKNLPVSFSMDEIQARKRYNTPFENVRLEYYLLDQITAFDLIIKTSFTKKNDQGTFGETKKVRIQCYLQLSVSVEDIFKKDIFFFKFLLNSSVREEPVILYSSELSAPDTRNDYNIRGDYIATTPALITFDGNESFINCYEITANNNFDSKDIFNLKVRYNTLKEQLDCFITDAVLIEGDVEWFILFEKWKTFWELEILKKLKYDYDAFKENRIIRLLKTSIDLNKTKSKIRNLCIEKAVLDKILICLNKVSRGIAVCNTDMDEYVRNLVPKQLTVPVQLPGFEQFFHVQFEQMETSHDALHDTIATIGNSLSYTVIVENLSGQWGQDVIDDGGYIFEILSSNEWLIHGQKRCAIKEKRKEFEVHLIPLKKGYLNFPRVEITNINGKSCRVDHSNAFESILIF
# B1: Full length Grh1 (protein, UniProt Q04410 1-372)
# chain: MFRIAKNLVRTFEQSVQDTLALSQDSSNLDAFFQSIPPNLLSAQLESPVDAVSEGVKHTNVNETLSGLRIVWVDEMQFQLQSFFDYIVGFNDDPVPVVSNQHGFSYPDYRRITSIFNEHCGRTLKVNIWSAKGGTFRDEYISIISKESDDLDDVSLNHDERRPSSGEAHQFQALGFKVQWTPLIASTFTYHILNVNIPDGPAQSAGLIPDEDYIIGCQDGLLATGGETLLQDIVRSRANYDLVLYVYNKVSDCVRPITVHIGPDGRLGCNVGYGFLHRIPTVKHCPQQAQQQGQDDNPVPVPVPVESETAFVPSAFTAPPVPTKKKSKNKKGTQPLAMDDYFNEGRDKSSTAAKSAESDILAPPPQKQSSSD
# B2: Tca17 (protein, UniProt P32613 1-152)
# chain: MSLRPCFVSLIDESDKPILIYVPNEAENEMNDVLKYNVLSNISLDYFESALVEWHSLDSKPLLKSIFQLEGVSVFAMLIKQTGLKIVIGFEQKSLSGADDEFEAINQIFETVRKIYIRVKCNPLLVSGDEKSIIKSLERKFDELFISTEVEL
# Key:
# [1] = target: T1, GST-Sec23 (S. cerevisiae); experiment: pull-down
# [2] = target: T2, Trs130 (S. cerevisiae); experiment: cryo-EM structure
binder,measurement,setting,value
B1,binding,[1],binds
B2,binding,[2],binds
